Literature values as cited in patent US20120294869A1, “Methods for Treating Fatty Liver Disease” (Nevada Cancer Institute, priority 2011, published 2012).
At least one structure is not confirmed: it was looked up by name or label, or the drawing left a doubt.

Tested on: UPP-2
Conditions: mouse liver tissue; cited from earlier work

## CC(C)OC(=O)C(C)(C)Oc1ccc(C(=O)c2ccc(Cl)cc2)cc1 [fenofibrate]
  effect on UPP-2 expression in mouse liver: inhibited
